Experimental data taken from patent US20250084172A1.
Results are given in words; binding and its absence hold for the method and conditions named. Some results given as binding are weak or reduced against the parent protein; the word gives no strength. Where a sequence is shown, tags or fusion partners need not be part of it.

Target: hNKG2D-Fc (human NKG2D 78-216 with C-terminal long huFc-Flag tag) (human)
Experiment: phage ELISA, recombinant NKG2D (PUR4928) coated, anti-M13-HRP detection

B1: human ULBP6 displayed on M13 phage (ULBP6-HA-pIII) (protein, not shown: large carriers)
chain: RRDDPHSLCYDITVIPKFRPGPRWCAVQGQVDEKTFLHYDCGNKTVTPVSPLGKKLNVTMAWKAQNPVLREVVDILTEQLLDIQLENYTPKEPLTLQARMSCEQKAEGHSSGSWQFSIDGQTFLLFDSEKRMWTTVHPGARKMKEKWENDKDVAMSFHYISMGDCIGWLEDFLMGMDSTLEPSAGAPLAMSSGYPYDVPDYA
For B1, the binding was “binds”.
